Here are results for four substances from PMC4323648.

By UniProt entry, the sequences of proteins in these tests, tags left out.
UniProt Q13418: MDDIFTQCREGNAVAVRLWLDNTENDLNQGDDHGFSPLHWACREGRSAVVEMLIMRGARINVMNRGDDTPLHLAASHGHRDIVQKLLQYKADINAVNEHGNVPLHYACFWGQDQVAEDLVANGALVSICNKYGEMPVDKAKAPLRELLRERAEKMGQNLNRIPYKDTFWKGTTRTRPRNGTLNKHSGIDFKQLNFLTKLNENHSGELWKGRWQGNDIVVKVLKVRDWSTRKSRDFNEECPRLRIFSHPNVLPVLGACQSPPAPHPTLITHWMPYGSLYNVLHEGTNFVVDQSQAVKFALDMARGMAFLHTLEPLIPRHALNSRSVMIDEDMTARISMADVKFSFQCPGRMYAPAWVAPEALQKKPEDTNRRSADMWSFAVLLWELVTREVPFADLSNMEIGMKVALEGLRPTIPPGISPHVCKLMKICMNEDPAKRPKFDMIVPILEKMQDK
UniProt Q13561: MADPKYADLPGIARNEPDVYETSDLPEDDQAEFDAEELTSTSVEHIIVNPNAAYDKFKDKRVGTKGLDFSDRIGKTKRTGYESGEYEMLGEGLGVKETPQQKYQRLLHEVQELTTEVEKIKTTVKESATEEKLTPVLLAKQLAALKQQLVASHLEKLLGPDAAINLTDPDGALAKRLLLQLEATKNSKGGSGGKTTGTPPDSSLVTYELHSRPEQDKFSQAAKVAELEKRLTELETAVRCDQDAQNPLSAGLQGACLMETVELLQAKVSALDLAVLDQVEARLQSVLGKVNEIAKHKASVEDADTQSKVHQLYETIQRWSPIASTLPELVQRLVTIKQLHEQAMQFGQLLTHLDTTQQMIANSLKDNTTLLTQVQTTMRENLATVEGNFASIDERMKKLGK
UniProt Q14980: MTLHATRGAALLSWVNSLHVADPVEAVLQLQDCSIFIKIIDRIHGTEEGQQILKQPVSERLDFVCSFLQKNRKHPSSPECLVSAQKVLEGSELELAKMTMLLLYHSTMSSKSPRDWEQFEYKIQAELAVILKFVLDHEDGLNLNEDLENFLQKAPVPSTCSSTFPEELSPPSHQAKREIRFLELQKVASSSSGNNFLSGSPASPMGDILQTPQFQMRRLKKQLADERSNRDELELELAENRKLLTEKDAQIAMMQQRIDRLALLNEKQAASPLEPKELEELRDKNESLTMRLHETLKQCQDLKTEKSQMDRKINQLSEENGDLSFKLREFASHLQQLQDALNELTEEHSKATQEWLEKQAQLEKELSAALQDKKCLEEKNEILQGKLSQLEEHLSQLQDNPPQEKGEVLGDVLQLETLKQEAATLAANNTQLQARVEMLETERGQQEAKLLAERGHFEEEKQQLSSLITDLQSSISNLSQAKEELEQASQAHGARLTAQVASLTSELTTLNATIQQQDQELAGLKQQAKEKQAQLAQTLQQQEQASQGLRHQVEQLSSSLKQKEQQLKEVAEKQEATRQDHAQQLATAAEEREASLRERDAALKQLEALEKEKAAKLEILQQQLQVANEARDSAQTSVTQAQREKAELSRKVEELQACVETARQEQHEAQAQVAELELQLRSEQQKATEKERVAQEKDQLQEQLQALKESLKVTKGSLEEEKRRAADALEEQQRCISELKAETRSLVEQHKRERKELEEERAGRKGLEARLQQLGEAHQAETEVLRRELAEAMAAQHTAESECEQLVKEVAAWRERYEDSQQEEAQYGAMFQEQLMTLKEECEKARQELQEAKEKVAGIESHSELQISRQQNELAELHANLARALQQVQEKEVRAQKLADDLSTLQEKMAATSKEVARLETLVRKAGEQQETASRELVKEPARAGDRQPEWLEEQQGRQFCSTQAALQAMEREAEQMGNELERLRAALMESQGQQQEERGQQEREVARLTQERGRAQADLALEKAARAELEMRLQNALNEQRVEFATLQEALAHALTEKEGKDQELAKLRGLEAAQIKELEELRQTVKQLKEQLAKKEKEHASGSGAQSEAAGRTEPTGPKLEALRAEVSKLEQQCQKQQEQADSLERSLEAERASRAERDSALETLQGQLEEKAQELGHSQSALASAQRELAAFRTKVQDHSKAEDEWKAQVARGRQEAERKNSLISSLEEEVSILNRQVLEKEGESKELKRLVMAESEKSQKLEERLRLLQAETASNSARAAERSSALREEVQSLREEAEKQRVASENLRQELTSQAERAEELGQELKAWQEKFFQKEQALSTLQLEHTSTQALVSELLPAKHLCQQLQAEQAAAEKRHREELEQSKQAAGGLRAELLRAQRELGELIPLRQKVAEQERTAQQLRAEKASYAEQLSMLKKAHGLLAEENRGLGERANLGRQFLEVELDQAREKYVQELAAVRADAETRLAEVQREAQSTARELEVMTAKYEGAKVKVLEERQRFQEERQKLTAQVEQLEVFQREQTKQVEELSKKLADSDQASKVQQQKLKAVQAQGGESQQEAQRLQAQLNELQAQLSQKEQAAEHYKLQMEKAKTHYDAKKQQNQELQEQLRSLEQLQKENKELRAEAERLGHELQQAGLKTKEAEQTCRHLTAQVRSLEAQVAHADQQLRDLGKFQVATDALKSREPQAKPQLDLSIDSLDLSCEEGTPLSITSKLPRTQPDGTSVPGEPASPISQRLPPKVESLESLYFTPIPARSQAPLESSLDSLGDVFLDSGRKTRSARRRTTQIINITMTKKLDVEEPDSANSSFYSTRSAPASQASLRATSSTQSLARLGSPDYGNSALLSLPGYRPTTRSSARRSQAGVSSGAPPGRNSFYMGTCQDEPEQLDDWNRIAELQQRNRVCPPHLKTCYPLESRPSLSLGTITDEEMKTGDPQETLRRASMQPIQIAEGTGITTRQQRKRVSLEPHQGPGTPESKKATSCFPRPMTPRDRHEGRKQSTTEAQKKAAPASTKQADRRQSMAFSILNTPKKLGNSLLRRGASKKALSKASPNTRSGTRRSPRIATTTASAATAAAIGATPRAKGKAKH

In experiment [1] the target is Integrin-Linked Kinase (endogenous, HeLa) (human (endogenous in HeLa)) (UniProt Q13418). In words: co-IP; endogenous ILK immunoprecipitated from HeLa (Kyoto) cells with ILK antibody or control IgG; Hepes-Chaps lysis buffer (40 mM Hepes HCl pH 7.4, 120 mM NaCl, 1 mM EDTA, 0.3% Chaps); Western blot.
Experiment [2] deals with Flag-ILK (Integrin-Linked Kinase) (UniProt Q13418). Description: co-IP; Flag immunoprecipitation from HEK-293 cells stably expressing Flag or Flag-ILK; Western blot for Dynactin-2. On the technique in general: In western blotting, separated proteins are transferred to a membrane and probed.
Experiment [3] deals with p50/Dynactin-2 (endogenous, HeLa) (human (endogenous in HeLa)) (UniProt Q13561). Description: co-IP; endogenous Dynactin-2 immunoprecipitated from HeLa cells with anti-Dynactin-2 or control IgG; cells first treated with 2 mM DSP and quenched with 10 mM Tris-HCl before lysis; Western blot.

Results are given in words; binding and its absence hold for the method and conditions named. In cells and extracts the contact can be indirect. Some results given as binding are weak or reduced against the parent protein; the word gives no strength.

As for “p50/Dynactin-2 (endogenous, HeLa) (from UniProt Q13561 1-401)”, in experiment [1], the binding entry is on record as “binds”. As to “p50/Dynactin-2 (endogenous, HEK-293) (from UniProt Q13561 1-401)”, the binding entry in experiment [2] is listed as “binds”.

On to “Integrin-Linked Kinase (endogenous, HeLa) (from UniProt Q13418 1-452)”, for which the binding result in experiment [3] is recorded as “binds”. Regarding “NuMa (endogenous, HeLa) (from UniProt Q14980 1-2115)”, the binding result in experiment [1] is listed as “no binding”.
